Data as given in PubChem BioAssay AID720505 (Drosophila RNAi Screening Center, 2013).
The deposit covers about 20,000 reagents; this is a random part of those with a known target gene and a result. Over the whole deposit, about 2,100 (10%) are marked active. 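Raw plate signals without normalisation; calls rest on control-based scores that were not deposited; replicate 2 separates called from uncalled poorly.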 Reagents against one gene are numbered here. Reagent sequences are not shown. Not stated in the record: the amount of reagent, the time to read-out.

Assay: 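Knock-downs that reduce calcium influx once internal stores are emptied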 (primary screen)
System: Drosophila S2R+ cells
Knock-down reagent: long dsRNA against Drosophila genes
Challenge: thapsigargin (2 µM) in calcium-free buffer to empty internal stores, then 2 mM calcium added back
Detection: 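Fluo-4 signal in 384-well plates read on a FLIPR after thapsigargin (2 µM, calcium-free) store depletion and 2 mM calcium add-back; unnormalised mean endpoint per well; screen run twice, selected wells retested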
Scale: calcium signal and retest calcium signal: higher = more calcium entry after store depletion
Active means: 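Knock-downs counted as hits when calcium entry dropped relative to STIM1 positive and Rho1 negative controls present on each plate; roughly 1500 genes called, with reductions of differing size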
Meaning of the calls: active = called as lowering calcium entry; inactive = not called

| Target gene | reagent no. | calcium signal, replicate 1 | calcium signal, replicate 2 | retest calcium signal, replicate 1 | retest calcium signal, replicate 2 | Call |
| --- | --- | --- | --- | --- | --- | --- |
| CG18404 (GeneID 43603) | 1 | 120 | 124 | – | – | inactive |
| Uch (GeneID 33397) | 1 | 38.8 | 94.4 | – | – | active |
| mRpS9 (GeneID 40932) | 1 | – | – | – | – | inactive |
| mRpS9 (GeneID 40932) | 2 | 136 | 182 | 6854 | 126 | inactive |
| Nadsyn (GeneID 32328) | 1 | 131 | 132 | – | – | inactive |
| CG18557 (GeneID 33483) | 1 | 218 | 107 | – | – | inactive |
| ste24a (GeneID 36908) | 1 | 120 | 93.2 | – | – | inactive |
| Sc2 (GeneID 38457) | 1 | 129 | 115 | – | – | inactive |
| CG30395 (GeneID 246589) | 1 | 85.6 | 4094 | – | – | inactive |
| CG10477 (GeneID 38679) | 1 | 46 | 86.4 | – | – | inactive |
| axo (GeneID 43923) | 1 | 98 | 86.8 | – | – | inactive |
| axo (GeneID 43923) | 2 | 87.6 | 70.6 | – | – | inactive |
| axo (GeneID 43923) | 3 | 83.7 | 74.2 | – | – | inactive |
| axo (GeneID 43923) | 4 | 72.4 | 112 | – | – | inactive |
| axo (GeneID 43923) | 5 | 52.1 | 83.1 | – | – | active |
| CG9630 (GeneID 40974) | 1 | 90 | 112 | – | – | inactive |
| Cpr49Ac (GeneID 36348) | 1 | 205 | 162 | – | – | inactive |
| CG9406 (GeneID 37405) | 1 | 183 | 84.9 | – | – | inactive |
| Jon99Ciii (GeneID 43543) | 1 | 142 | 139 | – | – | inactive |
| CG14752 (GeneID 35840) | 1 | 133 | 182 | – | – | inactive |
| nAChRbeta1 (GeneID 38545) | 1 | 62.3 | 107 | – | – | active |
| Rpt4 (GeneID 31567) | 1 | 96.9 | 87.5 | – | – | active |
| CR42545 (GeneID 8674105) | 1 | 111 | 84.6 | – | – | inactive |
| aqrs (GeneID 43396) | 1 | 169 | 178 | – | – | inactive |
| Ddrgk1 (GeneID 42516) | 1 | 162 | 294 | – | – | inactive |
| Kank (GeneID 36668) | 1 | 89.4 | 132 | – | – | inactive |
| Kank (GeneID 36668) | 2 | 150 | 124 | – | – | inactive |
| CG11811 (GeneID 39213) | 1 | 56 | 88.1 | – | – | inactive |
| CG12479 (GeneID 50344) | 1 | 87.6 | 138 | – | – | inactive |
| NiPp1 (GeneID 44748) | 1 | 97.1 | 80 | – | – | inactive |
| AOX1 (GeneID 41894) | 1 | 85.3 | 113 | – | – | inactive |
| Sec61gamma (GeneID 32968) | 1 | 60 | 209 | – | – | active |
| CG15705 (GeneID 36815) | 1 | 148 | 164 | – | – | inactive |
| dsh (GeneID 32078) | 1 | 112 | 90.5 | – | – | inactive |
| CG1137 (GeneID 40803) | 1 | 123 | 172 | – | – | inactive |
| CG32507 (GeneID 318060) | 1 | 56.8 | 68.1 | 7126 | 123 | active |
| polyph (GeneID 36161) | 1 | 141 | 172 | – | – | inactive |
| CG3062 (GeneID 31396) | 1 | 229 | 93.8 | – | – | inactive |
| CG4000 (GeneID 42451) | 1 | 123 | 177 | 9795 | 201 | inactive |
| CG4000 (GeneID 42451) | 2 | 253 | 117 | – | – | inactive |
| CG8665 (GeneID 35407) | 1 | 187 | 84.5 | – | – | inactive |
| Su(var)3-7 (GeneID 41627) | 1 | 105 | 143 | – | – | inactive |
| Sam-S (GeneID 48552) | 1 | 97.6 | 122 | – | – | inactive |
| CG10339 (GeneID 37854) | 1 | 87.7 | 171 | – | – | inactive |
| CG11007 (GeneID 37249) | 1 | 137 | 125 | – | – | inactive |
| CG9667 (GeneID 40960) | 1 | 70.1 | 189 | – | – | active |
| ssp7 (GeneID 318146) | 1 | – | – | – | – | active |
| CG6497 (GeneID 39924) | 1 | 96.2 | 121 | – | – | inactive |
| CG6497 (GeneID 39924) | 2 | 107 | 92 | – | – | inactive |
| CG10508 (GeneID 40342) | 1 | 59.2 | 75.2 | – | – | active |
| CG10508 (GeneID 40342) | 2 | 117 | 114 | – | – | inactive |
| Rrp1 (GeneID 33500) | 1 | 61.5 | 62.8 | 78.6 | 82.2 | active |
| Osi5 (GeneID 40759) | 1 | 77.9 | 129 | – | – | active |
| CG34324 (GeneID 32302) | 1 | 116 | 96.3 | – | – | inactive |
| CG34324 (GeneID 32302) | 2 | 125 | 164 | – | – | inactive |
| CG13921 (GeneID 38222) | 1 | 111 | 79.8 | 97.8 | 110 | inactive |

Ordered by “calcium signal, replicate 2” (lowest first): some entries from above
| Target gene | reagent no. | calcium signal, replicate 1 | calcium signal, replicate 2 | retest calcium signal, replicate 1 | retest calcium signal, replicate 2 | Call |
| --- | --- | --- | --- | --- | --- | --- |
| axo (GeneID 43923) | 5 | 52.1 | 83.1 | – | – | active |
| CG9406 (GeneID 37405) | 1 | 183 | 84.9 | – | – | inactive |
| Rpt4 (GeneID 31567) | 1 | 96.9 | 87.5 | – | – | active |
| nAChRbeta1 (GeneID 38545) | 1 | 62.3 | 107 | – | – | active |
| CG9630 (GeneID 40974) | 1 | 90 | 112 | – | – | inactive |
| Jon99Ciii (GeneID 43543) | 1 | 142 | 139 | – | – | inactive |
| Cpr49Ac (GeneID 36348) | 1 | 205 | 162 | – | – | inactive |
| CG14752 (GeneID 35840) | 1 | 133 | 182 | – | – | inactive |
